{"source": "PubChem BioAssay AID2685", "about": "(National Center for Advancing Translational Sciences (NCATS), 2010)", "assay": "qHTS Assay for Lipid Storage Modulators in Drosophila S3 Cells;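 on cell number change: cells counted by Cell Tracker Red CMTPX staining in the red channel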", "conditions": "BODIPY lipid droplet fluorescence, 18-24 h; for cell number change: measured here: cell count max response, cells fed with added oleic acid", "in_short": "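Drosophila S3 cells got compounds at several concentrations plus oleic acid (400 uM solution). Laser-scanning cytometry with 488 nm excitation read lipid droplets at 500-530 nm and cells at 575-640 nm. Percent activity was relative to 20 uM Triacsin C.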", "key": {"[1]": {"conditions": "measured here: lipid fluorescence (Fed channel) AC50, cells fed with added oleic acid"}, "[2]": {"conditions": "measured here: cell number channel AC50, cells fed with added oleic acid"}}, "note": "This is one part of the list. Shown are side measurements of this screen, not its main read-out; they come without a call. Most of these compounds were active or inconclusive in the main read-out, so they are no random draw. The note in brackets gives the kind of curve behind each potency; many fits are weak."}
{"compound": "CCOc1ccc(CCn2c(-c3ccco3)nc3ccccc3c2=O)cc1OCC", "values": [{"measurement": "cell number change", "value": -13.8, "unit": "%"}, {"measurement": "AC50", "setting": "[1]", "value": "1.64 µM [rising, partial curve]"}]}
{"compound": "Cc1sc2ncnc(SCC(=O)Nc3nc(-c4ccc(F)c(F)c4)cs3)c2c1C", "values": [{"measurement": "cell number change", "value": -16.5, "unit": "%"}, {"measurement": "AC50", "setting": "[1]", "value": "29.1 µM [falling, single point]"}]}
{"compound": "CN(Cc1ccccc1)Cc1nc2c(c(=O)n(C)c(=O)n2C)n1Cc1ccc(Cl)cc1", "values": [{"measurement": "AC50", "setting": "[2]", "value": "1.84 µM [rising, partial curve]"}, {"measurement": "AC50", "setting": "[1]", "value": "1.64 µM [rising, partial curve]"}]}
{"compound": "COc1ccc2[nH]c3c(=O)n(CCCC(=O)NC4CCC(C)CC4)c(=S)[nH]c3c2c1", "note": "(stereo not given)", "values": [{"measurement": "AC50", "setting": "[1]", "value": "3.66 µM [falling, single point]"}]}
{"compound": "CCCNC(=O)C(=O)Nc1ccc2c(c1)N(S(=O)(=O)c1cccs1)CCC2", "values": [{"measurement": "cell number change", "value": -2.02, "unit": "%"}, {"measurement": "AC50", "setting": "[2]", "value": "0.461 µM [rising, single point]"}]}
{"compound": "COC(=O)Cn1cnc(=O)c(C#N)c1/C=C/N(C)C", "values": [{"measurement": "cell number change", "value": -14.9, "unit": "%"}, {"measurement": "AC50", "setting": "[2]", "value": "0.731 µM [falling, full curve, poor fit]"}]}
{"compound": "CCOc1ccc(NC(=O)C2CCC(N3C(=O)C4CC=CCC4C3=O)CC2)cc1", "note": "(stereo not given)", "values": [{"measurement": "cell number change", "value": -12.1, "unit": "%"}]}
{"compound": "CCCCOC(=O)C1[C@H]2C(=O)N(CCc3ccccc3)C[C@]23C=C[C@H]1O3", "note": "(stereo not given in full)", "values": [{"measurement": "cell number change", "value": -4.4, "unit": "%"}, {"measurement": "AC50", "setting": "[1]", "value": "29.1 µM [rising, single point]"}]}
{"compound": "O=c1[nH]nc(SCCS(=O)(=O)c2ccc(F)cc2)n1-c1ccccc1", "values": [{"measurement": "cell number change", "value": 11.7, "unit": "%"}, {"measurement": "AC50", "setting": "[1]", "value": "1.64 µM [rising, full curve, poor fit]"}]}
{"compound": "CCOC(=O)c1cnn(Cc2ccc(C)cc2)c1N", "values": [{"measurement": "cell number change", "value": 38.7, "unit": "%"}]}
{"compound": "Cc1c(C(=O)NCCN(C)C)oc2ccc(S(=O)(=O)N3CCCC3)cc12", "values": [{"measurement": "AC50", "setting": "[1]", "value": "0.164 µM [falling, full curve]"}]}
{"compound": "Cc1c(C=N)c(O)n(C)c(=O)c1C#N", "values": [{"measurement": "cell number change", "value": 4.35, "unit": "%"}, {"measurement": "AC50", "setting": "[1]", "value": "0.13 µM [falling, full curve, poor fit]"}]}
{"compound": "CCOC(=O)CSc1nc(C(C)(C)C)cc(C(F)(F)F)c1C#N", "values": [{"measurement": "cell number change", "value": -12.5, "unit": "%"}, {"measurement": "AC50", "setting": "[1]", "value": "25.9 µM [falling, partial curve]"}]}
{"compound": "Cn1c(=O)n(C)c2cc(NC(=O)COc3ccccc3)ccc21", "values": [{"measurement": "cell number change", "value": -22.9, "unit": "%"}]}
{"compound": "COc1cc(CCC(=O)OCC(=O)Nc2sccc2C(N)=O)cc(OC)c1OC", "values": [{"measurement": "cell number change", "value": 202, "unit": "%"}]}
{"compound": "COc1ccccc1-c1nnc2sc(-c3ccc(N(C)C)cc3)nn12", "values": [{"measurement": "cell number change", "value": -5.77, "unit": "%"}, {"measurement": "AC50", "setting": "[1]", "value": "1.64 µM [falling, partial curve, poor fit]"}]}
{"compound": "COc1ccc(N(CC(=O)Nc2cccnc2)S(=O)(=O)c2ccc(C)cc2)cc1Cl", "values": [{"measurement": "cell number change", "value": 13, "unit": "%"}, {"measurement": "AC50", "setting": "[1]", "value": "0.82 µM [rising, full curve]"}]}
{"compound": "COc1ccc(CCC(=O)NNC(=O)Nc2ccc(C(C)=O)cc2)cc1", "values": [{"measurement": "cell number change", "value": 7.33, "unit": "%"}, {"measurement": "AC50", "setting": "[1]", "value": "4.11 µM [rising, single point]"}]}
